Experimental findings from article PMC3182238 are described below.

Sequences of proteins named here, by UniProt entry; tags and fusion partners are left off.
UniProt P04150: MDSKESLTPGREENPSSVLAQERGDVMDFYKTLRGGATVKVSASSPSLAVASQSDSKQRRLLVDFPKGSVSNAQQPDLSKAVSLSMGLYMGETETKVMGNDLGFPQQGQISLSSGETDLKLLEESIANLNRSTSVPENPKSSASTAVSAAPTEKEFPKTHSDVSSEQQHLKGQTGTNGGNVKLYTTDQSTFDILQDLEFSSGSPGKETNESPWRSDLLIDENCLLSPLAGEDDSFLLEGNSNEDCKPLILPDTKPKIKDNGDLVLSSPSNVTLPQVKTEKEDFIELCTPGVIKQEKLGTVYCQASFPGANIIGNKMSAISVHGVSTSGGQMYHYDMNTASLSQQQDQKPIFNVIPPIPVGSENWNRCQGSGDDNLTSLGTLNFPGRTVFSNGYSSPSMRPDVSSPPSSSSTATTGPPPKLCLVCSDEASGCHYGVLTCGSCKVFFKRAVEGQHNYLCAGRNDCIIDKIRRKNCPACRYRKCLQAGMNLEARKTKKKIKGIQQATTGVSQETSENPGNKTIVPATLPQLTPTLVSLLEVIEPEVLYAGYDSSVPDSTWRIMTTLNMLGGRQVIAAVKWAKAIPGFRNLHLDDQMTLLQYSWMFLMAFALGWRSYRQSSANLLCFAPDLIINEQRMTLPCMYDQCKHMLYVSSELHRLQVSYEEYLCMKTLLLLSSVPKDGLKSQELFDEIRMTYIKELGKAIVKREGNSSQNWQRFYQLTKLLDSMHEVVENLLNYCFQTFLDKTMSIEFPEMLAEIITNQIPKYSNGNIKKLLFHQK

The target in this assay is glucocorticoid receptor (GR) (human (endogenous in PBMCs)) (UniProt P04150). The assay can be described thus: co-IP; co-immunoprecipitation with anti-GR or control antibody from PBMCs (obtained at 6 am from healthy subjects) cultured ex vivo in the absence or presence of 5x10^-7 M hydrocortisone for 3 hours; Clock detected by Western blot. Background: In western blotting, separated proteins are transferred to a membrane and probed.

Results are given in words; binding and its absence hold for the method and conditions named. In cells and extracts the contact can be indirect. Some binding calls cover weakened binding; strength is not graded here.

B1: circadian locomotor output cycle kaput (Clock) (protein, UniProt O15516 1-846)
chain: MLFTVSCSKMSSIVDRDDSSIFDGLVEEDDKDKAKRVSRNKSEKKRRDQFNVLIKELGSMLPGNARKMDKSTVLQKSIDFLRKHKEITAQSDASEIRQDWKPTFLSNEEFTQLMLEALDGFFLAIMTDGSIIYVSESVTSLLEHLPSDLVDQSIFNFIPEGEHSEVYKILSTHLLESDSLTPEYLKSKNQLEFCCHMLRGTIDPKEPSTYEYVKFIGNFKSLNSVSSSAHNGFEGTIQRTHRPSYEDRVCFVATVRLATPQFIKEMCTVEEPNEEFTSRHSLEWKFLFLDHRAPPIIGYLPFEVLGTSGYDYYHVDDLENLAKCHEHLMQYGKGKSCYYRFLTKGQQWIWLQTHYYITYHQWNSRPEFIVCTHTVVSYAEVRAERRRELGIEESLPETAADKSQDSGSDNRINTVSLKEALERFDHSPTPSASSRSSRKSSHTAVSDPSSTPTKIPTDTSTPPRQHLPAHEKMVQRRSSFSSQSINSQSVGSSLTQPVMSQATNLPIPQGMSQFQFSAQLGAMQHLKDQLEQRTRMIEANIHRQQEELRKIQEQLQMVHGQGLQMFLQQSNPGLNFGSVQLSSGNSSNIQQLAPINMQGQVVPTNQIQSGMNTGHIGTTQHMIQQQTLQSTSTQSQQNVLSGHSQQTSLPSQTQSTLTAPLYNTMVISQPAAGSMVQIPSSMPQNSTQSAAVTTFTQDRQIRFSQGQQLVTKLVTAPVACGAVMVPSTMLMGQVVTAYPTFATQQQQSQTLSVTQQQQQQSSQEQQLTSVQQPSQAQLTQPPQQFLQTSRLLHGNPSTQLILSAAFPLQQSTFPQSHHQQHQSQQQQQLSRHRTDSLPDPSKVQPQ
In the case of B1, the binding result is “binds”.
